# Assay results taken from PubChem BioAssay AID720641 (ICCB-Longwood Screening Facility, Harvard Medical School, 2013).
# The list shows a part of the results.
# Assay: S. aureus growth inhibition at 42 and 30 °C, primary screen, LtaS inhibitor project, RN4220, two temperatures (AID 720641)
# Settings: OD600, 20 h, 42 °C, measured here: growth at 30 °C, stronger effect = lower value
row,SMILES,relative growth
1,CN(CCCl)CCCl,86.4%
